Values quoted from earlier work in patent publication US5036097A, “Phenylbutyl nitrone compositions and methods for prevention of gastric ulceration” (Oklahoma Medical Research Foundation, priority 1990, dated 1991).
At least one compound was matched to its structure with a doubt left.

Tested on: mitochondrial oxidative phosphorylation
Settings: long been recognized; cited from earlier work

Q: For `O=C(O)c1ccccc1O` [Salicylate], which “uncoupling of mitochondrial oxidative phosphorylation” value is on record?
A: The value was “uncouplers of mitochondrial oxidative phosphorylation”.
